Assay results reported in PubChem BioAssay AID504467 (National Center for Advancing Translational Sciences (NCATS), 2011).
About 7,700 (2.3%) of roughly 330,000 compounds were called active. This list was built around the results that the source calls inconclusive (neither active nor inactive); the mix of calls is not that of the screen. The call rests on the fitted dose curve; in most records, active means well fitted inhibition curve with a large enough effect; inconclusive means small, poorly fitted or top-dose-only effect, or effect the other way; inactive means flat fitted curve, though single readings scatter. A potency beside an inconclusive call is a rough fit, not a confirmed value.

experiment: qHTS screen for small molecules that inhibit ELG1-dependent DNA repair in human embryonic kidney (HEK293T) cells expressing luciferase-tagged ELG1; details: HEK293T ELG1-luciferase reporter, luminescence, 16 h, DNA damage induced by 5-fluorouridine; activity change, negative = inhibition: at 46.1 µM (top of the series); further: nearly all actives have a fitted effect of over 55% in size
In short: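 Reporter activity after DNA damage by 5-fluorouridine is monitored. Compound-treated cells incubate 16 hr at 37 °C, then ONE-Glo is added for 30 min before luminescence reading.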
On the % scale 0 is the no-effect control and ±100 the full control effect; potency means the concentration at half of the fitted maximal effect.

Row | Structure (SMILES) | Potency | activity change, negative = inhibition
1 | CCCOc1ccc(C(=O)CCC(=O)OCC(=O)Nc2cccc(S(N)(=O)=O)c2)cc1 | inconclusive: 16.4 µM [activator, partial curve] | –
2 | Cc1cc(C(=O)N(C)Cc2c(F)cccc2Cl)c2ccccc2n1 | – | inactive: -8.31%
3 | Cc1ccc(Cn2c(/C=C/c3ccco3)nc3ccccc32)cc1 | inconclusive: 20.6 µM [activator, partial curve] | –
4 | Cc1ccc(C(=O)O/N=C(\N)c2cccnc2)cc1[N+](=O)[O-] | inconclusive: 14.6 µM [activator, partial curve] | –
5 | COc1ccccc1C(=O)N1C(CC(=O)Nc2ccc(C)c(C)c2)C(=O)NC2CCCCC21 (stereo not given) | inconclusive: 18.3 µM [inhibitor, partial curve, poor fit] | –
6 | COc1ccc(-c2noc(CCC(=O)N3CCN(c4ccccc4C(F)(F)F)CC3)n2)cc1 | inconclusive: 29.1 µM [inhibitor, single point] | –
7 | COCc1ccc(C(=O)N(C)CC2CCCN(CCc3ccc(Cl)cc3)C2)o1 (stereo not given) | – | inactive: -5.38%
8 | CC1(C)SC(=S)N(/N=C/c2ccccc2O)C1N(O)C(=O)Nc1ccccc1 (stereo not given) | inconclusive: 29.1 µM [inhibitor, single point] | –
9 | COc1ccc(-c2cc(C(=O)Nc3nc4c(C)cccc4s3)c3ccccc3n2)cc1OC | inconclusive: 7.94 µM [inhibitor, partial curve, poor fit] | –
10 | CC1(c2ccccc2)NC(=O)N(CC(=O)NCc2ccc3c(c2)OCO3)C1=O (stereo not given) | – | inactive: 1.86%
11 | COc1ccc(CC2SC(N)=NC2=O)cc1 (stereo not given) | inconclusive: 10 µM [inhibitor, partial curve, poor fit] | –
12 | O=c1c2c(nc3cc(-c4ccccc4)[nH]n13)CCS2 | inconclusive: 16.4 µM [activator, partial curve] | –
13 | Cc1ccc2[nH]c(=O)c(CN(C(=O)c3cccs3)c3ccccc3)cc2c1 | inconclusive: 20.6 µM [inhibitor, single point] | –
14 | COc1ccc(-c2cc(C(=O)Nc3cccc(O)c3)no2)cc1 | inconclusive: 3.66 µM [activator, full curve] | –
15 | CC(C)(C)c1ccc(OC2=CS(=O)(=O)c3ccccc32)cc1 | inconclusive: 9.2 µM [activator, partial curve, poor fit] | –
16 | C#CCOCCOCCOCCNc1nc(N2CCN(C(=O)CCCCCCCCCCNC(=O)Cn3cc(C[C@@H](C)O)nn3)CC2)nc(N2CCN(C(=O)CCCCCCCCCCNC(=O)[C@@H]([C@H](C)O)n3cc(C)nn3)CC2)n1 | inconclusive: 28.2 µM [inhibitor, single point] | –
17 | CCCC(=O)NC(=S)Nc1cccc(NC(=O)c2ccccc2)c1 | inconclusive: 23.1 µM [inhibitor, single point] | –
18 | COc1ccc(Nc2nc(C)nc3sc4c(c23)CCC4)cc1O | – | inactive: -5.96%
19 | O=S(=O)(Nc1nc2ccccc2nc1N1CCN(CCO)CC1)c1cc(F)ccc1F | – | inactive: 10.8%
20 | CCOC(=O)c1oc2ccc3c(c2c1C)C(=O)CC1(CCN(C(=O)OCC)CC1)O3 | active: 20.6 µM | –
21 | O=C(CN1CCC(n2nnc3cc(C(F)(F)F)ccc32)CC1)Nc1ccc2c(c1)OCCO2 | inconclusive: 16.4 µM [inhibitor, single point] | –
22 | CCN1C(=NCc2ccc(OC)cc2)N[C@@H](c2ccccc2)[C@H](C(=O)OC)[C@H]1C | – | inactive: 16.6%

Row | Structure (SMILES) | Potency | activity change, negative = inhibition
23 | COc1ccc(C(=O)C2CCCN(Cc3cccn3-c3nccs3)C2)cc1OC (stereo not given) | inconclusive: 29.1 µM [inhibitor, single point] | –
24 | O=c1[nH]cnc2sc3c(c12)CCCCC3 | inconclusive: 13 µM [inhibitor, partial curve] | –
25 | COc1ccccc1N1CCN(C(=O)C(=O)c2cn(CC(=O)N3CCCCCC3)c3ccccc23)CC1 | inconclusive: 18.3 µM [inhibitor, partial curve] | –
26 | CC1C(=O)N2CCCc3cc(NC(=O)c4ccccc4F)cc1c32 (stereo not given) | inconclusive: 4.61 µM [activator, single point] | –
27 | Cc1cccc(NC(=O)c2nc[nH]c2C(=O)N[C@H](C)c2ccccc2)c1 | inconclusive: 25.9 µM [inhibitor, single point] | –
28 | CSc1nc(N)nc(SCC(=O)Nc2cccc(F)c2)c1C#N | inconclusive: 32.6 µM [inhibitor, partial curve, poor fit] | –
29 | COCCCNC(=O)CCC(=O)Nc1ccc2nc(N3CCOCC3)cc(C)c2c1 | inconclusive: 3.66 µM [activator, single point] | –
30 | N=c1n(CCN2CCCCC2)c2ccccc2n1CC(O)COc1ccccc1 (stereo not given) | inconclusive: 4.11 µM [inhibitor, single point] | –
31 | C=CCc1ccccc1OCC(O)CN(C(C)C)C(C)C (stereo not given) | – | inactive: -7.27%
32 | Cc1ccc(NC(=O)c2ccccc2-c2ccc(C(F)(F)F)cc2)cc1S(=O)(=O)N1CCOCC1 | active: 20.6 µM | –
33 | CCCNS(=O)(=O)c1ccc(OCC(=O)OC)cc1 | inconclusive: 23.1 µM [activator, single point] | –
34 | Cc1cc(C(=O)CSc2nc3ccccc3[nH]2)c(C)n1C | inconclusive: 2.06 µM [activator, partial curve] | –
35 | CC[C@H](C)[C@@H](NC(=O)O[C@@H]1C(=O)c2cc(OC)ccc2O[C@H]1c1ccc(OC)c(Br)c1)C(=O)OC | inconclusive: 5.8 µM [inhibitor, full curve] | –
36 | O=C(CSc1nc(SCC(=O)NCc2ccccc2)n(-c2ccccc2)n1)NCc1ccccc1 | inconclusive: 20.6 µM [inhibitor, single point] | –
37 | Cc1nn(C(C)C(=O)O)c(=O)c2c1sc1ccccc12 (stereo not given) | inconclusive: 16.4 µM [activator, partial curve] | –
38 | CC1(C)CC(=O)C=C(Nc2ccc(Cl)cc2)C1 | – | inactive: -0.0862%
39 | COc1ccc2oc(-c3ccccc3)c(C(=O)O)c2c1 | – | inactive: 5.61%
40 | O=C(COC(=O)c1cccs1)Nc1ccccc1Cl | inconclusive: 13 µM [activator, partial curve, poor fit] | –
41 | O=C(C1CCN(c2nnc(N3CCCC3=O)s2)CC1)N1CCN(c2cccc(C(F)(F)F)c2)CC1 | inconclusive: 23.1 µM [inhibitor, single point] | –
42 | COc1ccc(NC(=O)Nc2cccc3c2O[C@H](CN(C)C(=O)Nc2ccc(C(F)(F)F)cc2)[C@@H](C)CN([C@H](C)CO)C3=O)cc1 | inconclusive: 2.06 µM [inhibitor, full curve] | –
43 | Cc1ccc(OCCC(=O)OCC(=O)N2CCN(S(=O)(=O)c3ccc(C)cc3C)CC2)cc1 | – | inactive: 0.158%
44 | COc1cccc(CN(C)c2nc(-c3cccs3)nc3ccccc23)c1 | inconclusive: 29.1 µM [inhibitor, single point] | –

Row | Structure (SMILES) | Potency | activity change, negative = inhibition
45 | CCOC(=O)c1sc(N(Cc2ccccc2)C(=O)CSc2nnc(C3CC3)n2N)nc1C | inconclusive: 8.91 µM [activator, partial curve, poor fit] | –
46 | CCC1(C)CC(CCNS(=O)(=O)c2ccc(C)cc2)(c2ccc(C)cc2)CCO1 (stereo not given) | – | inactive: -12.9%
47 | CC(=Nc1ccccc1)c1sc2ccccc2c1O | inconclusive: 2.59 µM [activator, full curve] | –
48 | O=c1[nH]c(CSc2ccccn2)nc2c1oc1ccccc12 | inconclusive: 1.83 µM [activator, partial curve] | –
49 | CC(C)(C)C1CCC(=O)N(CCC#N)CC1 (stereo not given) | – | inactive: 2.15%
50 | CCc1nc(CN2CCN(c3cc(C(F)(F)F)ccn3)CC2)c(C)[nH]1 | active: 7.3 µM | –
51 | CCc1ccc(-c2cc(C)no2)cc1S(=O)(=O)N1CCN(c2ccc(F)cc2)CC1 | inconclusive: 11.6 µM [inhibitor, partial curve] | –
52 | CC(=O)c1ccc(OCC(O)CN2CCN(CCN3C(=O)c4cccc5cccc(c45)C3=O)CC2)cc1 (stereo not given) | active: 23.1 µM | –
53 | COc1cc(CN(C)C(C)C(=O)Nc2ccc([N+](=O)[O-])cc2Cl)ccc1OC(F)F (stereo not given) | active: 16.4 µM | –
54 | CC(=O)Nc1ccc(S(=O)(=O)N2CCN(c3nc(C)cc(C)n3)CC2)cc1 | – | inactive: -5.4%
55 | O=C(OCC(=O)N1CCCC1)c1ccccc1OCc1ccccc1 | inconclusive: 25.9 µM [activator, partial curve, poor fit] | –
56 | Cc1cccc(N2C(=O)c3ccc(C(=O)Nc4ccccn4)cc3C2=O)c1 | inconclusive: 14.6 µM [activator, single point] | –
57 | CC(C)NC(=O)CSc1ccccc1C(=O)N1CCN(S(=O)(=O)Cc2ccccc2)CC1 | – | inactive: 1.83%
58 | O=C(COC(=O)c1ccccc1C(=O)OCC(=O)NCCc1c[nH]c2ccccc12)NCCc1c[nH]c2ccccc12 | inconclusive: 31.6 µM [inhibitor, single point] | –
59 | O=C1CN(C(=O)c2ccc(Br)o2)C(c2ccccc2)c2cc(Cl)ccc2N1 (stereo not given) | active: 20.6 µM | –
60 | CCN1CCN(CCNC(=O)C2CCCN(Cc3nc(-c4cccc(Cl)c4)oc3C)C2)CC1 (stereo not given) | inconclusive: 23.1 µM [inhibitor, partial curve, poor fit] | –
61 | C/C(=N/Nc1ncc(Br)cn1)c1ccc(Br)cc1 | inconclusive: 16.4 µM [activator, partial curve, poor fit] | –
62 | CN(c1ccccc1)S(=O)(=O)c1ccc(Cl)c(C(=O)Nc2ccc(N3CCOCC3)cc2)c1 | inconclusive: 23.1 µM [inhibitor, partial curve] | –
63 | CCN(c1ccccc1)C1(O)C(=O)c2ccccc2C1=O | inconclusive: 29.1 µM [activator, single point] | –
64 | COc1ccc(NS(=O)(=O)c2cc(NC(=O)CNC(=O)c3cccc(OC)c3)ccc2C)cc1 | – | inactive: -0.684%
65 | COc1ccc(OCc2cc(C(=O)N(C)Cc3nnc(C)o3)no2)c(Cl)c1 | inconclusive: 18.3 µM [activator, partial curve] | –

Nos. 48 to 49 from above:
Row | Structure (SMILES) | Potency | activity change, negative = inhibition
48 | O=c1[nH]c(CSc2ccccn2)nc2c1oc1ccccc12 | inconclusive: 1.83 µM [activator, partial curve] | –
49 | CC(C)(C)C1CCC(=O)N(CCC#N)CC1 (stereo not given) | – | inactive: 2.15%
